Experiment [1] addresses T1, Escherichia coli magnesium transporter MgtA (from pETDuet-1-MgtAS, co-overexpressed with MgtS) (Escherichia coli) (UniProt P0ABB8).
T1 sequence: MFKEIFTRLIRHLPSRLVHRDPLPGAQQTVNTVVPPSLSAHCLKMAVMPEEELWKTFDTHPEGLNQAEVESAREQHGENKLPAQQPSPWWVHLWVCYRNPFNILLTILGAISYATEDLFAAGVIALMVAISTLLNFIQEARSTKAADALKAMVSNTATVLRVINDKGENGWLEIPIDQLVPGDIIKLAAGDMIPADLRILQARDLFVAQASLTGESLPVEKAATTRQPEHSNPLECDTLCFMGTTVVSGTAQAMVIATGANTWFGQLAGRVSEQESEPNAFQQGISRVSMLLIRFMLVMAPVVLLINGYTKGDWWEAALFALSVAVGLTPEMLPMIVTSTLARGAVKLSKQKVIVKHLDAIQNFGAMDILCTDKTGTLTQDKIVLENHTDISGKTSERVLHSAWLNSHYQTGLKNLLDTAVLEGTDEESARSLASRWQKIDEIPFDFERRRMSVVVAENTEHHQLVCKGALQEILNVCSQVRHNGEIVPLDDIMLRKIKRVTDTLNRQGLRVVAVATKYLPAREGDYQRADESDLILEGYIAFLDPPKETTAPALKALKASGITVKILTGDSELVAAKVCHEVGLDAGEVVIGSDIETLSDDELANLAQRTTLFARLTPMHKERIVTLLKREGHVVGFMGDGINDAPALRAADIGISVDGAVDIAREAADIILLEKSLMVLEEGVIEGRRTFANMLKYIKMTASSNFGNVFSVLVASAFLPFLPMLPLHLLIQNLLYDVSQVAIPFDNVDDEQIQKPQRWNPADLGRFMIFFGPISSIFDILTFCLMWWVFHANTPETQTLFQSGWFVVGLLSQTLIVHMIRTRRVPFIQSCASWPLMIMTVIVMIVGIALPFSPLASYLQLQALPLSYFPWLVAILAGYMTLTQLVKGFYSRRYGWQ
Put plainly: native gel or EMSA; Blue Native-PAGE (4-16% BisTris) of membranes (10 mg/mL) solubilised with 1% GDN for 16 h at 4°C; blot with anti-FLAG or anti-His6x.

The target in experiment [2] is T1, Escherichia coli magnesium transporter MgtA (from pETDuet-1-MgtAS, co-overexpressed with MgtS) (Escherichia coli). Put plainly: condition: only membranes solubilised with 1% DDM or 1% LMNG; native gel or EMSA; Blue Native-PAGE (4-16% BisTris) of membranes (10 mg/mL) solubilised with 1% DDM or 1% LMNG for 16 h at 4°C; blot with anti-FLAG or anti-His6x.
Experiment [3] has as its target MgtA co-expressed as two differently tagged copies, MgtA-H6 (pBAD24-MgtA-H6) and MgtA-SPA (pACYC-MgtA-SPA) (Escherichia coli) (UniProt P0ABB8). Put plainly: co-IP; MgtA-SPA held on FLAG resin from membranes solubilised with 1% GDN, 4°C; eluted with 0.2 M glycine pH 2.4; Western blot with polyclonal anti-MgtA. (In general: In western blotting, separated proteins are transferred to a membrane and probed.)

The target of experiment [4] is T1, Escherichia coli magnesium transporter MgtA (from pETDuet-1-MgtAS, co-overexpressed with MgtS) (Escherichia coli). Put plainly: native gel or EMSA; Blue Native-PAGE (4-16% BisTris) of membranes (10 mg/mL) solubilised with 1% DDM or 1% LMNG for 16 h at 4°C; blot with anti-FLAG or anti-His6x.

Results are given in words; binding and its absence hold for the method and conditions named. For some of these results: Binding seen in cells or lysates may run through a third protein. Some results given as binding are weak or reduced against the parent protein; the word gives no strength. For some of these results: Tags and fused reporters may be left off the sequences shown.

As for MLGNMNVFMAVLGIILFSGFLAAYFSHKWDD (peptide, UniProt A5A616 1-31) [31-amino acid MgtS protein of E. coli (co-overexpressed with MgtA from pETDuet-1-MgtAS)], the binding result in experiment [1] is “binds”; in experiment [2], “no binding”.

B1: MgtA co-expressed as two differently tagged copies, MgtA-H6 (pBAD24-MgtA-H6) and MgtA-SPA (pACYC-MgtA-SPA) (protein, UniProt P0ABB8 1-898)
chain: MFKEIFTRLIRHLPSRLVHRDPLPGAQQTVNTVVPPSLSAHCLKMAVMPEEELWKTFDTHPEGLNQAEVESAREQHGENKLPAQQPSPWWVHLWVCYRNPFNILLTILGAISYATEDLFAAGVIALMVAISTLLNFIQEARSTKAADALKAMVSNTATVLRVINDKGENGWLEIPIDQLVPGDIIKLAAGDMIPADLRILQARDLFVAQASLTGESLPVEKAATTRQPEHSNPLECDTLCFMGTTVVSGTAQAMVIATGANTWFGQLAGRVSEQESEPNAFQQGISRVSMLLIRFMLVMAPVVLLINGYTKGDWWEAALFALSVAVGLTPEMLPMIVTSTLARGAVKLSKQKVIVKHLDAIQNFGAMDILCTDKTGTLTQDKIVLENHTDISGKTSERVLHSAWLNSHYQTGLKNLLDTAVLEGTDEESARSLASRWQKIDEIPFDFERRRMSVVVAENTEHHQLVCKGALQEILNVCSQVRHNGEIVPLDDIMLRKIKRVTDTLNRQGLRVVAVATKYLPAREGDYQRADESDLILEGYIAFLDPPKETTAPALKALKASGITVKILTGDSELVAAKVCHEVGLDAGEVVIGSDIETLSDDELANLAQRTTLFARLTPMHKERIVTLLKREGHVVGFMGDGINDAPALRAADIGISVDGAVDIAREAADIILLEKSLMVLEEGVIEGRRTFANMLKYIKMTASSNFGNVFSVLVASAFLPFLPMLPLHLLIQNLLYDVSQVAIPFDNVDDEQIQKPQRWNPADLGRFMIFFGPISSIFDILTFCLMWWVFHANTPETQTLFQSGWFVVGLLSQTLIVHMIRTRRVPFIQSCASWPLMIMTVIVMIVGIALPFSPLASYLQLQALPLSYFPWLVAILAGYMTLTQLVKGFYSRRYGWQ
For the molecule B1, the binding entry in experiment [3] is recorded as “binds”.

B2: Escherichia coli magnesium transporter MgtA (from pETDuet-1-MgtAS, co-overexpressed with MgtS) (natural protein)
chain: MFKEIFTRLIRHLPSRLVHRDPLPGAQQTVNTVVPPSLSAHCLKMAVMPEEELWKTFDTHPEGLNQAEVESAREQHGENKLPAQQPSPWWVHLWVCYRNPFNILLTILGAISYATEDLFAAGVIALMVAISTLLNFIQEARSTKAADALKAMVSNTATVLRVINDKGENGWLEIPIDQLVPGDIIKLAAGDMIPADLRILQARDLFVAQASLTGESLPVEKAATTRQPEHSNPLECDTLCFMGTTVVSGTAQAMVIATGANTWFGQLAGRVSEQESEPNAFQQGISRVSMLLIRFMLVMAPVVLLINGYTKGDWWEAALFALSVAVGLTPEMLPMIVTSTLARGAVKLSKQKVIVKHLDAIQNFGAMDILCTDKTGTLTQDKIVLENHTDISGKTSERVLHSAWLNSHYQTGLKNLLDTAVLEGTDEESARSLASRWQKIDEIPFDFERRRMSVVVAENTEHHQLVCKGALQEILNVCSQVRHNGEIVPLDDIMLRKIKRVTDTLNRQGLRVVAVATKYLPAREGDYQRADESDLILEGYIAFLDPPKETTAPALKALKASGITVKILTGDSELVAAKVCHEVGLDAGEVVIGSDIETLSDDELANLAQRTTLFARLTPMHKERIVTLLKREGHVVGFMGDGINDAPALRAADIGISVDGAVDIAREAADIILLEKSLMVLEEGVIEGRRTFANMLKYIKMTASSNFGNVFSVLVASAFLPFLPMLPLHLLIQNLLYDVSQVAIPFDNVDDEQIQKPQRWNPADLGRFMIFFGPISSIFDILTFCLMWWVFHANTPETQTLFQSGWFVVGLLSQTLIVHMIRTRRVPFIQSCASWPLMIMTVIVMIVGIALPFSPLASYLQLQALPLSYFPWLVAILAGYMTLTQLVKGFYSRRYGWQ
notes: MgtA, E. coli, P-type ATPase Mg2+ transporter, 100 kDa, 898 amino acids; residues from the N-terminal tail (1-36) on are modelled in the dimer structure; That the His tag stands on MgtA is inferred from its elution from Ni-NTA; also called EcMgtA; MgtAS (the purified sample); source: E. coli C43 (DE3), pETDuet-1-MgtAS, co-overexpressed with MgtS; membranes solubilised with 1% GDN (or DDM, LMNG); …
Consider B2, for which, in experiment [4], the binding result is recorded as “no binding (condition: solubilised with DDM)”.

The values above are taken from doi:10.1101/2024.02.28.582502, “Magnesium Transporter MgtA revealed as a Dimeric P-type ATPase” (bioRxiv, 2024).
